Experimental data from article PMC5433425 (PeerJ, 2017).
Further values from the same series stand in other lists.

System: E. coli AG100tet
Experiment: EtBr accumulation by real-time fluorometry

CC[n+]1c(-c2ccccc2)c2cc(N)ccc2c2ccc(N)cc21 [EtBr, ethidium bromide]
EtBr fluorescence (EtBr 2 µg/ml, cycle 16): 9.484
EtBr fluorescence (EtBr 2 µg/ml, cycle 17): 9.566
EtBr fluorescence (EtBr 2 µg/ml, cycle 18): 9.394
EtBr fluorescence (EtBr 2 µg/ml, cycle 19): 9.44
EtBr fluorescence (EtBr 2 µg/ml, cycle 20): 9.416
EtBr fluorescence (EtBr 2 µg/ml, cycle 21): 9.532
EtBr fluorescence (EtBr 2 µg/ml, cycle 22): 9.518
EtBr fluorescence (EtBr 2 µg/ml, cycle 23): 9.556
EtBr fluorescence (EtBr 2 µg/ml, cycle 24): 9.669
EtBr fluorescence (EtBr 2 µg/ml, cycle 25): 9.459
EtBr fluorescence (EtBr 2 µg/ml, cycle 26): 9.614
EtBr fluorescence (EtBr 2 µg/ml, cycle 27): 9.534
EtBr fluorescence (EtBr 2 µg/ml, cycle 28): 9.617
EtBr fluorescence (EtBr 2 µg/ml, cycle 29): 9.539
EtBr fluorescence (EtBr 2 µg/ml, cycle 30): 9.577
EtBr fluorescence (EtBr 3 µg/ml, cycle 3): 12.4504
EtBr fluorescence (EtBr 3 µg/ml, cycle 4): 12.8296
EtBr fluorescence (EtBr 3 µg/ml, cycle 5): 12.8811
EtBr fluorescence (EtBr 3 µg/ml, cycle 6): 12.9512
EtBr fluorescence (EtBr 3 µg/ml, cycle 7): 13.0751
EtBr fluorescence (EtBr 3 µg/ml, cycle 8): 13.1165
EtBr fluorescence (EtBr 3 µg/ml, cycle 9): 13.268
EtBr fluorescence (EtBr 3 µg/ml, cycle 10): 13.171
EtBr fluorescence (EtBr 3 µg/ml, cycle 11): 13.3427
EtBr fluorescence (EtBr 3 µg/ml, cycle 12): 13.3723
EtBr fluorescence (EtBr 3 µg/ml, cycle 13): 13.4136
EtBr fluorescence (EtBr 3 µg/ml, cycle 14): 13.3033
EtBr fluorescence (EtBr 3 µg/ml, cycle 15): 13.4312
EtBr fluorescence (EtBr 3 µg/ml, cycle 16): 13.4653
EtBr fluorescence (EtBr 3 µg/ml, cycle 17): 13.4424
EtBr fluorescence (EtBr 3 µg/ml, cycle 18): 13.4877
EtBr fluorescence (EtBr 3 µg/ml, cycle 19): 13.7076
EtBr fluorescence (EtBr 3 µg/ml, cycle 20): 13.6421
EtBr fluorescence (EtBr 3 µg/ml, cycle 21): 13.5444
EtBr fluorescence (EtBr 3 µg/ml, cycle 22): 13.7388
EtBr fluorescence (EtBr 3 µg/ml, cycle 23): 13.5484
EtBr fluorescence (EtBr 3 µg/ml, cycle 24): 13.6568
EtBr fluorescence (EtBr 3 µg/ml, cycle 25): 13.5912
EtBr fluorescence (EtBr 3 µg/ml, cycle 26): 13.7728
EtBr fluorescence (EtBr 3 µg/ml, cycle 27): 13.7752
EtBr fluorescence (EtBr 3 µg/ml, cycle 28): 13.6498
EtBr fluorescence (EtBr 3 µg/ml, cycle 29): 13.7822
EtBr fluorescence (EtBr 3 µg/ml, cycle 30): 13.916
EtBr fluorescence (EtBr 4 µg/ml, cycle 1): 17.9061
EtBr fluorescence (EtBr 4 µg/ml, cycle 2): 17.8905
EtBr fluorescence (EtBr 4 µg/ml, cycle 3): 18.3623
EtBr fluorescence (EtBr 4 µg/ml, cycle 4): 18.3619
EtBr fluorescence (EtBr 4 µg/ml, cycle 5): 18.5489
EtBr fluorescence (EtBr 4 µg/ml, cycle 6): 18.388
EtBr fluorescence (EtBr 4 µg/ml, cycle 7): 18.8085
EtBr fluorescence (EtBr 4 µg/ml, cycle 8): 18.7162
EtBr fluorescence (EtBr 4 µg/ml, cycle 9): 18.9268
EtBr fluorescence (EtBr 4 µg/ml, cycle 10): 18.8656
EtBr fluorescence (EtBr 4 µg/ml, cycle 11): 19.0328
EtBr fluorescence (EtBr 4 µg/ml, cycle 12): 19.0307
EtBr fluorescence (EtBr 4 µg/ml, cycle 13): 19.0701
EtBr fluorescence (EtBr 4 µg/ml, cycle 14): 19.0215
EtBr fluorescence (EtBr 4 µg/ml, cycle 15): 19.2572
EtBr fluorescence (EtBr 4 µg/ml, cycle 16): 18.9926
EtBr fluorescence (EtBr 4 µg/ml, cycle 17): 19.2153
EtBr fluorescence (EtBr 4 µg/ml, cycle 18): 19.3102
EtBr fluorescence (EtBr 4 µg/ml, cycle 19): 19.3156
EtBr fluorescence (EtBr 4 µg/ml, cycle 20): 19.4703
EtBr fluorescence (EtBr 4 µg/ml, cycle 21): 19.3763
EtBr fluorescence (EtBr 4 µg/ml, cycle 22): 19.4692
EtBr fluorescence (EtBr 4 µg/ml, cycle 23): 19.4991
EtBr fluorescence (EtBr 4 µg/ml, cycle 24): 19.424
EtBr fluorescence (EtBr 4 µg/ml, cycle 25): 19.6
EtBr fluorescence (EtBr 4 µg/ml, cycle 26): 19.628
EtBr fluorescence (EtBr 4 µg/ml, cycle 27): 19.5233
EtBr fluorescence (EtBr 4 µg/ml, cycle 28): 19.5677
EtBr fluorescence (EtBr 4 µg/ml, cycle 29): 19.6495
EtBr fluorescence (EtBr 4 µg/ml, cycle 30): 19.5712
EtBr fluorescence (EtBr 5 µg/ml, cycle 1): 20.4609
EtBr fluorescence (EtBr 5 µg/ml, cycle 2): 20.6092
EtBr fluorescence (EtBr 5 µg/ml, cycle 3): 20.8018
EtBr fluorescence (EtBr 5 µg/ml, cycle 4): 20.9508
EtBr fluorescence (EtBr 5 µg/ml, cycle 5): 21.0952
EtBr fluorescence (EtBr 5 µg/ml, cycle 6): 21.1881
EtBr fluorescence (EtBr 5 µg/ml, cycle 7): 21.3359
EtBr fluorescence (EtBr 5 µg/ml, cycle 8): 21.4701
EtBr fluorescence (EtBr 5 µg/ml, cycle 9): 21.5744
EtBr fluorescence (EtBr 5 µg/ml, cycle 10): 21.3397
EtBr fluorescence (EtBr 5 µg/ml, cycle 11): 21.7699
EtBr fluorescence (EtBr 5 µg/ml, cycle 12): 21.8291
EtBr fluorescence (EtBr 5 µg/ml, cycle 13): 22.1219
EtBr fluorescence (EtBr 5 µg/ml, cycle 14): 21.7965
EtBr fluorescence (EtBr 5 µg/ml, cycle 15): 22.0119
EtBr fluorescence (EtBr 5 µg/ml, cycle 16): 21.6498
EtBr fluorescence (EtBr 5 µg/ml, cycle 17): 22.1598
EtBr fluorescence (EtBr 5 µg/ml, cycle 18): 22.0116
EtBr fluorescence (EtBr 5 µg/ml, cycle 19): 21.9197
EtBr fluorescence (EtBr 5 µg/ml, cycle 20): 22.0952
EtBr fluorescence (EtBr 5 µg/ml, cycle 21): 22.2888
EtBr fluorescence (EtBr 5 µg/ml, cycle 22): 22.4138
EtBr fluorescence (EtBr 5 µg/ml, cycle 23): 22.4435
EtBr fluorescence (EtBr 5 µg/ml, cycle 24): 22.4842
EtBr fluorescence (EtBr 5 µg/ml, cycle 25): 22.2992
EtBr fluorescence (EtBr 5 µg/ml, cycle 26): 22.463
EtBr fluorescence (EtBr 5 µg/ml, cycle 27): 22.6635
EtBr fluorescence (EtBr 5 µg/ml, cycle 28): 22.6764
EtBr fluorescence (EtBr 5 µg/ml, cycle 29): 22.5346
EtBr fluorescence (EtBr 5 µg/ml, cycle 30): 22.7483
